# From PMC5053539
# Sequences of proteins named here, by UniProt entry; tags and fusion partners are left off. A change or cut given only in a name is not applied to a line headed by its entry.
# UniProt P45970: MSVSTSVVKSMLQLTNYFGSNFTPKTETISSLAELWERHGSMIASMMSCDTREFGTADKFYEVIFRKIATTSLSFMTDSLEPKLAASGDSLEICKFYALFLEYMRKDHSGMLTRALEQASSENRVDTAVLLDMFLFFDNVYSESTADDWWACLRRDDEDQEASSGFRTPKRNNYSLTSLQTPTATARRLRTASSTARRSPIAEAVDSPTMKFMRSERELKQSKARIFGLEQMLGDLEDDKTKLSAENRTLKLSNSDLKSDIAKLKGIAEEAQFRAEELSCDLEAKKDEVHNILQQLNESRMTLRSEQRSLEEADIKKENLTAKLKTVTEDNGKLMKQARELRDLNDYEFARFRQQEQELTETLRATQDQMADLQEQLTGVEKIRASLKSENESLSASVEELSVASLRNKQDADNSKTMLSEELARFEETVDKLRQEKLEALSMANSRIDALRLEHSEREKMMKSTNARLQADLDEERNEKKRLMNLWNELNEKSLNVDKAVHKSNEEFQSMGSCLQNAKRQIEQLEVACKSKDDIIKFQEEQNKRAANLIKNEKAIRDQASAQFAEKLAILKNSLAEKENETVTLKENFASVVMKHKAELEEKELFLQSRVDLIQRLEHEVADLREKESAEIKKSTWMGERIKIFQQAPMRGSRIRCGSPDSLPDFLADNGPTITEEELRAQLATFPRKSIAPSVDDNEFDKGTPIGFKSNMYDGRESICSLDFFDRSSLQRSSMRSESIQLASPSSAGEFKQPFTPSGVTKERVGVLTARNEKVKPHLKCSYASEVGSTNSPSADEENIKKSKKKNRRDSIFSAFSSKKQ
# Results are given in words; binding and its absence hold for the method and conditions named.
# Molecular target: T1, DB::GPR-1 (C. elegans) (UniProt Q95QJ7)
# T1 sequence: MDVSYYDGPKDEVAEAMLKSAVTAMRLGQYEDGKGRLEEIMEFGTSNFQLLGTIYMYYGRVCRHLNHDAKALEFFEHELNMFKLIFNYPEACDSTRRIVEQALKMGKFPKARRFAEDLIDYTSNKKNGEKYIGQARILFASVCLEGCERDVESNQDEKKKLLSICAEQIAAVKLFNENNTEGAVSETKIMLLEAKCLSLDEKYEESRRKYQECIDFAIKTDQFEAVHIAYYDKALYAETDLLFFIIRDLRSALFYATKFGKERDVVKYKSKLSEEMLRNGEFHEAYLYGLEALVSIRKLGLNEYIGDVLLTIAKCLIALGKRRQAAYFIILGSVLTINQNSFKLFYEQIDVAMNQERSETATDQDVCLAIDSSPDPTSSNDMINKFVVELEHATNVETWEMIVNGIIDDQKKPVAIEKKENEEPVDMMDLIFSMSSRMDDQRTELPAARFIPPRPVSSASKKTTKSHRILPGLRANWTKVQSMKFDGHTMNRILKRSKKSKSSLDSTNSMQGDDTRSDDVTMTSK
# Assay: two-hybrid; reverse two-hybrid: DB::GPR-1 bait, mutagenised AD::LIN-5 609-821 prey, yeast strain MB004, selection on Sc -leu-trp + 5-FOA; single amino acid changes re-cloned and re-tested on Sc -leu-trp-his + 3-AT and Sc -leu-trp-ura plates
substance,measurement,value
AD::LIN-5 609–821 with a missense mutation of S659 (from UniProt P45970) (domain or fragment),binding,no binding
